Measured values published in the supplement of paper PMC12819154, “High-throughput peptide-centric local stability assay extends protein–ligand identification to membrane proteins, tissues and bacteria” (Nature Structural & Molecular Biology, 2025).
The list shows a part of the results. Small differences around the control level are noise.

Sequences of proteins named here, by UniProt entry; tags and fusion partners are left off. A change or cut given only in a name is not applied to a line headed by its entry.
UniProt P17019: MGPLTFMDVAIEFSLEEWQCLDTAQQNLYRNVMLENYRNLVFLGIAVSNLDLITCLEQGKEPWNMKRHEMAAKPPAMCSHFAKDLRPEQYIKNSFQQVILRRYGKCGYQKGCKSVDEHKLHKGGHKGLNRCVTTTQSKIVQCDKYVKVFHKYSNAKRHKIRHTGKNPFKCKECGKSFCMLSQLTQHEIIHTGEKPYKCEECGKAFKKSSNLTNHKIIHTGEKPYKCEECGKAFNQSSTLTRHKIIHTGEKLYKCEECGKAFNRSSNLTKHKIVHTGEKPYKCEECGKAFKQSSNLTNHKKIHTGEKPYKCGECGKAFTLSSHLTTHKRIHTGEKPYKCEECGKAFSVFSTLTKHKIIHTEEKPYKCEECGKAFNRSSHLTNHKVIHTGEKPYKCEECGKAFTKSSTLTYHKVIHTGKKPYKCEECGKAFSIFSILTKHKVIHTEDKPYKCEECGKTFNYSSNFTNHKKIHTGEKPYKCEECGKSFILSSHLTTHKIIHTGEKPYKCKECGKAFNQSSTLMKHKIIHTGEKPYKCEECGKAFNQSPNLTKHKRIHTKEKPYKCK
UniProt P14373: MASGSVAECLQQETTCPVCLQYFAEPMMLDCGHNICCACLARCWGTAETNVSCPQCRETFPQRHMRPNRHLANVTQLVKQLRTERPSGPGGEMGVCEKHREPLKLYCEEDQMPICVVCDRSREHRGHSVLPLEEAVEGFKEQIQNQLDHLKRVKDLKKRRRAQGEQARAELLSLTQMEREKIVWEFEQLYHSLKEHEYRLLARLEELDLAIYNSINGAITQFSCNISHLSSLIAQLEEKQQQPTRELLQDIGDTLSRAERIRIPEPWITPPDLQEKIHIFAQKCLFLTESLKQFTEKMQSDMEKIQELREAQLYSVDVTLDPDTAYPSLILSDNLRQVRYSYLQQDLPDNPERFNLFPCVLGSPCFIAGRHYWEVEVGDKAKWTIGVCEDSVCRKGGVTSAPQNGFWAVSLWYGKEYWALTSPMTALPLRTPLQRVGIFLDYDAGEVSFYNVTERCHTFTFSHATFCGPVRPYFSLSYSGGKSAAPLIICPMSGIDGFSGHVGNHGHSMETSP
UniProt P22061: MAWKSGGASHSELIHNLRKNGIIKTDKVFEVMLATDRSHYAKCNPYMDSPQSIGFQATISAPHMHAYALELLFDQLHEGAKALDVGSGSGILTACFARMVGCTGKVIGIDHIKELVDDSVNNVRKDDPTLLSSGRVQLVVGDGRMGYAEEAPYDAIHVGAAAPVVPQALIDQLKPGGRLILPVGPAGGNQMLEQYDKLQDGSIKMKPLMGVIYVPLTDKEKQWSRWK
UniProt P27348: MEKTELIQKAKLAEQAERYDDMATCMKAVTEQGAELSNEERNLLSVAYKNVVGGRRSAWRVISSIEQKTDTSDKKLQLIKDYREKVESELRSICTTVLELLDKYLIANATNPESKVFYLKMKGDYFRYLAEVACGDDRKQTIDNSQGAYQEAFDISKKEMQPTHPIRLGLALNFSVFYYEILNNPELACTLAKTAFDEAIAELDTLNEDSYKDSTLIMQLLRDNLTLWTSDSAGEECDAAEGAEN
UniProt P23381: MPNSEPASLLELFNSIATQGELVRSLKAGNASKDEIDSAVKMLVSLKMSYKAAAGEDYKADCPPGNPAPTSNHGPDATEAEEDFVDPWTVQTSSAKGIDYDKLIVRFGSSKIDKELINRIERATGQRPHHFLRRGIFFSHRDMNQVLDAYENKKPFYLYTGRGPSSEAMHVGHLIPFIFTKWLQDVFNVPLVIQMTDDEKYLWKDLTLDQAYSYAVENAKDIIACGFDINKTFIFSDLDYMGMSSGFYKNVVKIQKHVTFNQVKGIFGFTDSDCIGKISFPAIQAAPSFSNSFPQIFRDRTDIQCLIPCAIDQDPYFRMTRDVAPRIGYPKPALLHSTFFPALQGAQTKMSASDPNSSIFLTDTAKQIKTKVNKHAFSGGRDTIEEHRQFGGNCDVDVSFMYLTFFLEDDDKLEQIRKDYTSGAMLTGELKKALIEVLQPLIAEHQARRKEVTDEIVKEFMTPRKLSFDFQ
UniProt P27707: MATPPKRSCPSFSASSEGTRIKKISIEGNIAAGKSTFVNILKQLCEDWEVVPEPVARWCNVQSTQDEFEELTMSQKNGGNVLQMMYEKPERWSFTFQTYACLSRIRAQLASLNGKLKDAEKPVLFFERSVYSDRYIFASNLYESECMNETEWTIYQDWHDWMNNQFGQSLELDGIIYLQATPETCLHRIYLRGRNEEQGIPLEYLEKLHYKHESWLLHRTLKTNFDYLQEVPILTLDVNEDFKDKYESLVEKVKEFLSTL
UniProt P22307: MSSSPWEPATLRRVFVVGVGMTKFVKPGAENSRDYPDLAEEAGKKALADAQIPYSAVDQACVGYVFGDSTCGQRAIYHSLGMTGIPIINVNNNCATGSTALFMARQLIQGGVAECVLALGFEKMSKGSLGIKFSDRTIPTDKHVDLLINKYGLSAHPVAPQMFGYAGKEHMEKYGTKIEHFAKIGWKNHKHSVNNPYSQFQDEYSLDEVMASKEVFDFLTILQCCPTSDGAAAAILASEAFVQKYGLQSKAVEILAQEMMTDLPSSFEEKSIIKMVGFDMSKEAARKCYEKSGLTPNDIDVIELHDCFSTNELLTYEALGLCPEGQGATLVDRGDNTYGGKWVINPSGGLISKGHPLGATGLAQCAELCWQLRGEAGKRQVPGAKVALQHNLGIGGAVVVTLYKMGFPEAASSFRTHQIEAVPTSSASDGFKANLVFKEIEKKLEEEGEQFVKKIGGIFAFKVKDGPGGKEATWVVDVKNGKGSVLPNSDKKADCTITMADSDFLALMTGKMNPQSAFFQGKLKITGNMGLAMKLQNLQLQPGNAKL
UniProt P18850: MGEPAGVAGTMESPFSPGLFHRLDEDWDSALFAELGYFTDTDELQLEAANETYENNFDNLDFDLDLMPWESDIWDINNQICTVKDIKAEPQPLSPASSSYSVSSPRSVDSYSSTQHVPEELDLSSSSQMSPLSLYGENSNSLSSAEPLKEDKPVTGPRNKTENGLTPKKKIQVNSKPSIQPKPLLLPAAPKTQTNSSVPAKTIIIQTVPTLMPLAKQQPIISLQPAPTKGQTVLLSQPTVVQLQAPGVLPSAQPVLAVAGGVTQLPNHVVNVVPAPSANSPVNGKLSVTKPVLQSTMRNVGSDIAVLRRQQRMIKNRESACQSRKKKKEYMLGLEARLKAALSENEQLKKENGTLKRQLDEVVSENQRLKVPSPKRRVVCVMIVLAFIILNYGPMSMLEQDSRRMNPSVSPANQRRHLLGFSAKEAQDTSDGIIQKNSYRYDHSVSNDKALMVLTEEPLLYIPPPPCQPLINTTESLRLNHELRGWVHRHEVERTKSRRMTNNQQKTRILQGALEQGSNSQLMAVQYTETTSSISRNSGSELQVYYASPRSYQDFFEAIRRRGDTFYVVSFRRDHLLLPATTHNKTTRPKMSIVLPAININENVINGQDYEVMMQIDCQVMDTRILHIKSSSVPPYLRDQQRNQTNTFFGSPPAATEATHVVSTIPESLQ
UniProt P14550: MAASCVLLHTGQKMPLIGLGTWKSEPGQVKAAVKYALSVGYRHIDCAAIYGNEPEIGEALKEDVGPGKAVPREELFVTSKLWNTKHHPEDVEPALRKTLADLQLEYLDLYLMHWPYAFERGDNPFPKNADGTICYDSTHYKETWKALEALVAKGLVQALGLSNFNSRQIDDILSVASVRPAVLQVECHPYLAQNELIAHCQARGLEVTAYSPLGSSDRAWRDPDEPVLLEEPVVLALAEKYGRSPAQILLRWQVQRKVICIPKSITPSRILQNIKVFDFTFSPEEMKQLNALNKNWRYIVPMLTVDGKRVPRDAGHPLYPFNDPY
UniProt P27986, whole entry: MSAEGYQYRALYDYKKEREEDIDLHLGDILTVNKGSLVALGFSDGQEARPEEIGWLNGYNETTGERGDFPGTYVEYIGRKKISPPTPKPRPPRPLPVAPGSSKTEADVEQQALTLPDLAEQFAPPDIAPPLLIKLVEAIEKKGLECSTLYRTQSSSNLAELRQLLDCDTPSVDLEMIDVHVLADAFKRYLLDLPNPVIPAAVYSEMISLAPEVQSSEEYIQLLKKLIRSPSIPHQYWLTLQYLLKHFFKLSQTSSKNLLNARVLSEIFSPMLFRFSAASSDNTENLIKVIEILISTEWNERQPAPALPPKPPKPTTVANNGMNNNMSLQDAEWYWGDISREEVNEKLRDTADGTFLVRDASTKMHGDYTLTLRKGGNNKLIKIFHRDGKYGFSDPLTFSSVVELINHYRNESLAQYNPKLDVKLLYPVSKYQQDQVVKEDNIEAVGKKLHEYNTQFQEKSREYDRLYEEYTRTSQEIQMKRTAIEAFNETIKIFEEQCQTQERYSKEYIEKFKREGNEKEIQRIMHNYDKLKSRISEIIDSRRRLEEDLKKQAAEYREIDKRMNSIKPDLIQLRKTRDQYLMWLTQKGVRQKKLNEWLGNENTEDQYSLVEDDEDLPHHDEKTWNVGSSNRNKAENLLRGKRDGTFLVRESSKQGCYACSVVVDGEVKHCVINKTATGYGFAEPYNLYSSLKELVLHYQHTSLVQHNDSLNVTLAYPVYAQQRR

compound: Cc1nc(Nc2ncc(C(=O)Nc3c(C)cccc3Cl)s2)cc(N2CCN(CCO)CC2)n1 [dasatinib]; experiment: log2 fold change of tryptic peptide abundance, ligand vs vehicle (limited proteolysis) (log2 ratio); higher = more trypsin-susceptible (destabilized); conditions: ligand concentration: 5 uM; sample: K562 cleared lysate

Row | Target | log2 fold change
1 | ZNF708 (peptide sequence: AFNQSSTLMK, peptide start residue: 512) (UniProt P17019) | -0.627
2 | TRIM27 (peptide sequence: HYWEVEVGDKAK, peptide start residue: 371) (UniProt P14373) | 0.737
3 | PCMT1 (peptide sequence: TDKVFEVMLATDR, peptide start residue: 25) (UniProt P22061) | -0.118
4 | YWHAQ (peptide sequence: YLAEVACGDDR, peptide start residue: 128) (UniProt P27348) | 0.0724
5 | WARS (peptide sequence: IDKELINR, peptide start residue: 112) (UniProt P23381) | -0.303
6 | DCK (peptide sequence: LKDAEKPVLFFER, peptide start residue: 116) (UniProt P27707) | -0.0721
7 | SCP2 (peptide sequence: GSVLPNSDKK, peptide start residue: 483) (UniProt P22307) | -0.195
8 | ATF6 (peptide sequence: IQVNSKPSIQPKPLLLPAAPK, peptide start residue: 171) (UniProt P18850) | -0.389
9 | AKR1A1 (peptide sequence: EELFVTSK, peptide start residue: 73) (UniProt P14550) | -0.428
10 | PIK3R1 (peptide sequence: LHEYNTQFQEK, peptide start residue: 449) (UniProt P27986) | 0.397

Look-ups from the list.
In log2 fold change, TRIM27 (peptide sequence: HYWEVEVGDKAK, peptide start residue: 371) (UniProt P14373) shows 0.737
In log2 fold change, DCK (peptide sequence: LKDAEKPVLFFER, peptide start residue: 116) (UniProt P27707) shows -0.0721
